# In patent publication US8410141B2, “Insecticidal arylpyrrolines” (Bayer Cropscience AG, priority 2009, dated 2013):
# Some entries share one result that the patent states for a list of compounds. For at least one compound, name, drawing or mass did not settle the structure.
# How the values were obtained:
# Format in all cases: in vivo
# Ctenocephalides felis = Ctenocephalides felis test (CTECFE); details: 100 ppm in cattle blood; adult unfed fleas; after 2 days
# Experimental: (§1) Solvent: dimethyl sulfoxide
# To produce a suitable preparation of active compound, 10 mg of active compound are dissolved in 0.5 ml solvent, and the concentrate is diluted with cattle blood to the desired concentration. Approximately 20 adult unfed (Ctenocepahlides felis) are placed in flea chambers. The blood chamber, sealed with parafilm on the bottom, are filled with cattle blood supplied with compound solution and placed on top of the flea chamber, so that the fleas are able to suck the blood. The blood chamber is heated to 37° C. whereas the flea chamber is kept at room temperature. After 2 days mortality in % is determined. 100% means that all the fleas have been killed; 0% means that none of the fleas have been killed.
# [1] = system: Lucilia cuprina 1st instar larvae; test: Lucilia cuprina (48 h); details: 100 ppm; minced horse meat; after 48 hrs
# Experimental: Species: Lucilia cuprina 1st instar larvae (age 24 hrs)
# as §1
# 10 mg active compound are dissolved in 0.5 ml dimethyl sulfoxide. Serial dilutions are made to obtain the desired rates. Approximately 20 Lucilia cuprina 1st instar larvae are transferred into a test tube containing 1 cm^3 of minced horse meat and 0.5 ml aqueous dilution of test compound. After 48 hrs percentage of larval mortality are recorded. 100% efficacy=all larvae are killed, […].
# [2] = system: adult engorged female Boophilus microplus ticks; test: Boophilus microplus (dip); details: 100 ppm; ticks immersed one minute; after 7 days
# Experimental: Solvent: Dimethylsulfoxid
# To produce a suitable preparation of active compound, 10 mg of active compound are dissolved in 0.5 ml solvent, and the concentrate is diluted with water to the desired concentration. Eight to ten adult engorged female Boophilus microplus ticks are placed in perforated plastic beakers and immersed in aqueous compound solution for one minute. Ticks are transferred to a filter paper in a plastic tray. Egg deposition of fertile eggs is monitored after. After 7 days mortality in % is determined. 100% means that all the ticks have been killed; 0% means that none of the ticks have been killed.
# Musca domestica = Musca domestica test; details: 100 ppm; sponge with sugar and compound solution; adults; after 2 days
# Experimental: as §1
# To produce a suitable preparation of active compound, 10 mg of active compound are dissolved in 0.5 ml solvent, and the concentrate is diluted with water to the desired concentration. Prior to the assay, a piece of kitchen sponge is soaked with a mixture of sugar and compound solution and placed into a container. 10 adults (Musca domestica) are placed into the container and closed with a perforated lid. After 2 days mortality in % is determined. 100% means that all the flies have been killed; 0% means that none of the flies have been killed.
Compound,mortality (Ctenocephalides felis) [%],larval mortality [1] [%],mortality [2] [%],mortality (Musca domestica) [%]
FC(F)(F)C1(c2cc(Cl)nc(Cl)c2)CN=C(c2ccc(-n3cncn3)cc2)C1 (centres unmarked) [1-2],100,100,–,–
FC(F)(F)C1(c2cc(Cl)c(Cl)c(Cl)c2)CN=C(c2ccc(-n3cncn3)c(Br)c2)C1 (centres unmarked) [1-31],100,100,100,100
N#Cc1cc(C2=NCC(c3cccc(C(F)(F)F)n3)(C(F)(F)F)C2)ccc1-n1cncn1 (centres unmarked) [1-126],–,100,–,–
Fc1cc(C2=NCC(c3cc(Cl)c(Cl)c(Cl)c3)(C(F)(F)F)C2)ccc1-n1cncn1 (centres unmarked) [1-29],100,100,–,100
N#Cc1cc(C2=NCC(c3cc(Cl)c(Cl)c(Cl)c3)(C(F)(F)F)C2)cnc1-n1cncn1 (centres unmarked) [1-52],100,100,–,100
O=C(CC(F)(F)F)NCc1ccc(C2=NCC(c3cc(Cl)c(Cl)c(Cl)c3)(C(F)(F)F)C2)cc1 (centres unmarked) [2-170],100,100,100,100
N#Cc1cc(C2=NCC(c3cc(Cl)cc(C(F)(F)F)c3)(C(F)(F)F)C2)ccc1-n1cncn1 (centres unmarked) [1-10],100,100,100,–
N#Cc1cc(C2=NCC(c3cc(Cl)c([N+](=O)[O-])c(Cl)c3)(C(F)(F)F)C2)ccc1-n1cncn1 (centres unmarked) [1-489],95,100,–,–
N#Cc1cc(C2=NCC(c3ccc(F)c(C(F)(F)F)c3)(C(F)(F)F)C2)ccc1-n1cncn1 (centres unmarked) [1-4],100,100,100,–
N#Cc1cc(C2=NCC(c3cc(Cl)cc(Cl)c3Cl)(C(F)(F)F)C2)ccc1-n1cncn1 (centres unmarked) [1-488],100,–,100,–
Cc1ccc(C2(C(F)(F)F)CN=C(c3ccc(-n4cncn4)c(C#N)c3)C2)cc1[N+](=O)[O-] (centres unmarked) [1-174],100,–,–,–
N#Cc1cc(C2=NCC(c3cc(OC(F)F)cc(OC(F)F)c3)(C(F)(F)F)C2)ccc1-n1cncn1 (centres unmarked) [1-485],100,100,–,100
CCC(=O)NCc1ccc(C2=NCC(c3cc(C(F)(F)F)cc(C(F)(F)F)c3)(C(F)(F)F)C2)cc1 (centres unmarked) [2-647],100,100,100,100
N#Cc1cc(C2=NCC(c3cccc(C(F)(F)F)c3F)(C(F)(F)F)C2)ccc1-n1cncn1 (centres unmarked) [1-19],95,100,–,–
CN(C)c1c(Cl)cc(C2(C(F)(F)F)CN=C(c3ccc(-n4cncn4)c(C#N)c3)C2)cc1Cl (centres unmarked) [1-3],95,–,–,–
N#Cc1cc(C2=NCC(c3cc(Cl)nc(Cl)c3)(C(F)(F)F)C2)cnc1-n1cncn1 (centres unmarked) [1-66],100,100,–,–
N#Cc1cc(C2=NCC(c3cc(C(F)(F)F)ccc3F)(C(F)(F)F)C2)ccc1-n1cncn1 (centres unmarked) [1-482],100,100,100,100
CC(=O)NCc1ccc(C2=NCC(c3cc(Cl)c(Cl)c(Cl)c3)(C(F)(F)F)C2)cc1 (centres unmarked) [2-168],100,100,100,100

Compound,mortality (Ctenocephalides felis) [%],larval mortality [1] [%],mortality [2] [%],mortality (Musca domestica) [%]
N#Cc1cc(C2=NCC(c3cncc(C(F)(F)F)c3)(C(F)(F)F)C2)ccc1-n1cncn1 (centres unmarked) [1-481],95,–,–,–
N#Cc1cc(C2=NCC(c3cc(C(F)(F)F)nc(C(F)(F)F)c3)(C(F)(F)F)C2)ccc1-n1cncn1 (centres unmarked) [1-22],100,100,100,100
N#Cc1cc(C2=NCC(c3ccnc(C(F)(F)F)c3)(C(F)(F)F)C2)ccc1-n1cncn1 (centres unmarked) [1-21],95,100,–,–
FC(F)(F)C1(c2cc(Cl)c(Cl)c(Cl)c2)CN=C(c2ccc(-n3cncn3)nc2)C1 (centres unmarked) [1-110],95,100,–,100
N#Cc1cc(C2=NCC(c3ccnc(Cl)c3)(C(F)(F)F)C2)ccc1-n1cncn1 (centres unmarked) [1-484],95,100,–,–
N#Cc1cc(C2=NCC(c3cc(Cl)c(F)c(Cl)c3)(C(F)(F)F)C2)ccc1-n1cncn1 (centres unmarked) [1-13],100,100,100,100
O=C(CC(F)(F)F)NCc1ccc(C2=NCC(c3cc(C(F)(F)F)cc(C(F)(F)F)c3)(C(F)(F)F)C2)cc1 (centres unmarked) [2-648],100,100,100,100
FC(F)(F)C1(c2cc(Cl)c(Cl)c(Cl)c2)CN=C(c2ccc(-n3cncn3)cc2)C1 (centres unmarked) [1-27],100,100,100,100
N#Cc1cc(C2=NCC(c3cc(Cl)c(F)c(Cl)c3F)(C(F)(F)F)C2)ccc1-n1cncn1 (centres unmarked) [1-20],100,100,100,100
N#Cc1cc(C2=NCC(c3cc(Cl)c4c(c3)OC(F)(F)O4)(C(F)(F)F)C2)ccc1-n1cncn1 (centres unmarked) [1-25],95,–,–,–
FC(F)(F)C1(c2cc(Cl)c(Cl)c(Cl)c2)CN=C(c2ccc(-n3cncn3)c(Cl)c2)C1 (centres unmarked) [1-30],–,100,100,100
O=[N+]([O-])c1cc(C2=NCC(c3cc(Cl)c(Cl)c(Cl)c3)(C(F)(F)F)C2)ccc1-n1cncn1 (centres unmarked) [1-35],100,100,100,100
CCC(=O)NCc1ccc(C2=NCC(c3cc(Cl)nc(Cl)c3)(C(F)(F)F)C2)cc1C(F)(F)F (centres unmarked) [2-2151],100,100,100,100
CCC(=O)NCc1ccc(C2=NCC(c3cc(Cl)c(Cl)c(Cl)c3)(C(F)(F)F)C2)cc1 (centres unmarked) [2-169],100,100,100,100
N#Cc1cc(C2=NCC(c3cc(C(F)(F)F)cc(Cl)n3)(C(F)(F)F)C2)ccc1-n1cncn1 (centres unmarked) [1-84],100,100,100,100
FC(F)(F)c1cc(C2=NCC(c3cc(Cl)c(Cl)c(Cl)c3)(C(F)(F)F)C2)ccc1-n1cncn1 (centres unmarked) [1-34],100,100,100,100
N#Cc1cc(C2=NCC(c3cc(Cl)nc(C(F)(F)F)c3)(C(F)(F)F)C2)ccc1-n1cncn1 (centres unmarked) [1-492],–,–,100,–
